Results as given in PubChem BioAssay AID2685 (National Center for Advancing Translational Sciences (NCATS), 2010).
The list shows a part of the results. Shown are side measurements of this screen, not its main read-out; they come without a call. Most of these compounds were active or inconclusive in the main read-out, so they are no random draw. Words in brackets tell the shape of the fitted curve; partial curves, single points and poor fits give uncertain potencies.

Assay: qHTS Assay for Lipid Storage Modulators in Drosophila S3 Cells;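 on cell number change: cells counted by Cell Tracker Red CMTPX staining in the red channel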
Details: BODIPY lipid droplet fluorescence, 18-24 h; for cell number change: measured here: cell count max response, cells fed with added oleic acid
In short: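 Laser-scanning cytometry quantifies lipid droplet accumulation (500–530 nm total intensity; droplet/cell object ratio) in oleic acid-fed (400 uM added) Drosophila S3 cells treated with a concentration series. 20 uM Triacsin C defined 100% inhibition.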

[1] = measured here: cell number channel AC50, cells fed with added oleic acid
[2] = measured here: lipid fluorescence (Fed channel) AC50, cells fed with added oleic acid

Compound	cell number change	AC50 [1]	AC50 [2]
COc1ccc(CCN2C(=O)c3[nH]nc(-c4ccccc4O)c3C2c2cccc(Cl)c2)cc1 (stereo unspecified)	-73%	16400 nM [falling, partial curve, poor fit]	16400 nM [falling, partial curve]
Cc1nc(S(=O)(=O)Cc2ccccc2)nc2c1CCC2	52.9%	6510 nM [falling, single point]	5800 nM [falling, single point]
O=C(CNC(=O)c1ccc(-c2ccccc2)cc1)OCc1c(Cl)cccc1Cl	8.45%		6510 nM [rising, full curve]
O=C(OCC(O)CN1CCCCC1)C12CC3CC(CC(C3)C1)C2 (stereo unspecified)	5.58%		731 nM [rising, single point]
Cc1ccc2[nH]c(C(=O)N3CCCC(Nc4ccc(F)cc4)C3)cc2c1 (stereo unspecified)	4.58%		
Cc1ccc(C)c(OCCC(=O)OCC(=O)N(C)c2c(N)n(Cc3ccccc3)c(=O)[nH]c2=O)c1	-38.4%	4.61 nM [falling, full curve, poor fit]	6510 nM [falling, partial curve]
COC1=C(c2ccccc2)C(=O)c2ccccc2C1=O	-20%		46.1 nM [falling, full curve]
O=[N+]([O-])c1ccc(S(=O)(=O)N2CCSC2c2ccco2)cc1 (stereo unspecified)	-15.9%	130 nM [falling, full curve, poor fit]	130 nM [falling, full curve, poor fit]
COc1ccc(-c2cc(C(=O)Oc3ccc([N+](=O)[O-])cc3)c3ccccc3n2)cc1	-19.2%		411 nM [falling, full curve]
CCOC(=O)c1cc(-c2ccccc2)sc1NC(=O)C(C)N1C(=O)NC(C)(c2ccc(Cl)cc2)C1=O (stereo unspecified)	-7.63%		
Cc1cccc(C)c1NC(=O)CCCN1CC(C)OC(C)C1 (stereo unspecified)	9.48%		
OCCCNc1nc(-c2ccc(Cl)cc2)nnc1-c1ccccc1		651 nM [rising, single point]	14.6 nM [rising, full curve, poor fit]
CCC(=N\NC(=O)COc1ccccc1OC)/C(CC)=N/NC(=O)COc1ccccc1OC	6.72%		
COc1cc(/C=C/C2=NC(=O)C(C)(C)O2)ccc1O	-10.6%		6510 nM [falling, partial curve, poor fit]
COc1ccc(CNC(=O)C2CCN(C(=O)[C@@H]3Cc4ccccc4CN3)CC2)cc1	-21%	1460 nM [rising, partial curve]	
CC1CN(S(=O)(=O)Cc2ccccc2)CC(C)O1 (stereo unspecified)	-1.82%		

Reprinted at random: two records from the list.
Compound	cell number change	AC50 [1]	AC50 [2]
COc1cc(/C=C/C2=NC(=O)C(C)(C)O2)ccc1O	-10.6%		6510 nM [falling, partial curve, poor fit]
CC1CN(S(=O)(=O)Cc2ccccc2)CC(C)O1 (stereo unspecified)	-1.82%		
